Values from PubChem BioAssay AID504774 (Drosophila RNAi Screening Center, 2011).

Screen: 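Knock-downs that shift viability of MMS-exposed cells relative to untreated ones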 (primary screen)
System: Drosophila Kc167 cells
Reagent: long dsRNA against Drosophila genes, about 0.25 µg dsRNA per well
Time to read-out: about 6 days: 3 days knock-down, then 3 days with or without MMS
Conditions: methyl methanesulphonate 0.004% (w/v) for 3 days after knock-down
Read-out: 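Viability in wells given MMS, read as ATP luminescence, normalised by quantiles plate by plate and averaged across replicates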
Reading the numbers: mean viability with MMS and viability with MMS: higher = more surviving cells after MMS
The deposit covers about 23,000 reagents; shown is a random part of those that have a named target and a result. 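Values are quantile-normalised luminescence on an arbitrary scale; higher means more cells surviving MMS.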 Reagents against one gene are numbered here. Not all columns of the deposit are shown. No sequences are given here.

For Spt20 #1, what does the deposit list?
mean viability with MMS: 2.95e6; viability with MMS, replicate 1: 3.48e6

What did the screen give for Spt20 #2?
mean viability with MMS: 3.40e6; viability with MMS, replicate 1: 3.74e6

How did the screen score CG31633?
mean viability with MMS: 3.56e6; viability with MMS, replicate 1: 3.97e6

What did the screen give for CG6724?
mean viability with MMS: 3.42e6; viability with MMS, replicate 1: 4.03e6

How did the screen score CG13698?
mean viability with MMS: 3.53e6; viability with MMS, replicate 1: 4.06e6

What is on record for haf?
mean viability with MMS: 3.50e6; viability with MMS, replicate 1: 3.97e6

Which result is listed for CG32762?
mean viability with MMS: 3.74e6; viability with MMS, replicate 1: 4.26e6

How did the screen score CG32071?
mean viability with MMS: 3.53e6; viability with MMS, replicate 1: 4.00e6

For east, what does the deposit list?
mean viability with MMS: 3.35e6; viability with MMS, replicate 1: 3.77e6

Which result is listed for GstE12?
mean viability with MMS: 3.28e6; viability with MMS, replicate 1: 3.64e6

With fzo, how do the results read?
mean viability with MMS: 3.62e6; viability with MMS, replicate 1: 4.12e6

What is on record for ntc?
mean viability with MMS: 3.64e6; viability with MMS, replicate 1: 4.23e6

What did the screen give for vtd?
mean viability with MMS: 3.54e6; viability with MMS, replicate 1: 4.07e6

What is on record for CG11345?
mean viability with MMS: 3.51e6; viability with MMS, replicate 1: 3.98e6

What is on record for CG4627?
mean viability with MMS: 3.56e6; viability with MMS, replicate 1: 3.87e6

For CG30412, how do the results read?
mean viability with MMS: 3.63e6; viability with MMS, replicate 1: 4.13e6

With Eig71Ei, what was measured?
mean viability with MMS: 3.66e6; viability with MMS, replicate 1: 4.19e6

For CG5885, how do the results read?
mean viability with MMS: 3.72e6; viability with MMS, replicate 1: 4.23e6

What is on record for COX7A?
mean viability with MMS: 3.48e6; viability with MMS, replicate 1: 3.78e6

With CG11588 #1, what was measured?
mean viability with MMS: 3.51e6; viability with MMS, replicate 1: 3.98e6

Which result is listed for CG11588 #2?
mean viability with MMS: 3.64e6; viability with MMS, replicate 1: 4.12e6

Which result is listed for pasi1 #1?
mean viability with MMS: 3.72e6; viability with MMS, replicate 1: 4.00e6

For pasi1 #2, how do the results read?
mean viability with MMS: 3.46e6; viability with MMS, replicate 1: 3.89e6

What did the screen give for mms4?
mean viability with MMS: 3.45e6; viability with MMS, replicate 1: 3.99e6

For CG34347 #1, what was measured?
mean viability with MMS: 3.51e6; viability with MMS, replicate 1: 4.04e6

What did the screen give for CG34347 #2?
mean viability with MMS: 3.32e6; viability with MMS, replicate 1: 3.74e6

Which result is listed for CG34347 #3?
mean viability with MMS: 3.20e6; viability with MMS, replicate 1: 3.60e6

What did the screen give for CG34347 #4?
mean viability with MMS: 7.24e5; viability with MMS, replicate 1: 3.42e6

With CG34347 #5, what was measured?
mean viability with MMS: 3.37e6; viability with MMS, replicate 1: 3.90e6

What did the screen give for DIP-alpha #1?
mean viability with MMS: 1.81e6; viability with MMS, replicate 1: 3.90e6

How did the screen score DIP-alpha #2?
mean viability with MMS: 3.11e6; viability with MMS, replicate 1: 3.66e6

With DIP-alpha #3, how do the results read?
mean viability with MMS: 3.60e6; viability with MMS, replicate 1: 4.02e6

With Rpn6, what does the deposit list?
mean viability with MMS: 2.77e6; viability with MMS, replicate 1: 3.49e6

With CG8945 #1, what was measured?
mean viability with MMS: 3.52e6; viability with MMS, replicate 1: 4.03e6

For CG8945 #2, what was measured?
mean viability with MMS: 3.50e6; viability with MMS, replicate 1: 3.97e6

What is on record for CG9676?
mean viability with MMS: 3.53e6; viability with MMS, replicate 1: 3.95e6

How did the screen score Dgk #1?
mean viability with MMS: 3.25e6; viability with MMS, replicate 1: 3.76e6

With Dgk #2, what does the deposit list?
mean viability with MMS: 3.60e6; viability with MMS, replicate 1: 4.24e6

With Dgk #3, what does the deposit list?
mean viability with MMS: 3.64e6; viability with MMS, replicate 1: 4.13e6

For Dgk #4, what does the deposit list?
mean viability with MMS: 3.82e6; viability with MMS, replicate 1: 4.07e6

What is on record for Dgk #5?
mean viability with MMS: 2.50e6; viability with MMS, replicate 1: 3.65e6

What did the screen give for bai?
mean viability with MMS: 3.79e6; viability with MMS, replicate 1: 4.22e6

What did the screen give for CG14131?
mean viability with MMS: 3.54e6; viability with MMS, replicate 1: 3.98e6

With Dysb, what does the deposit list?
mean viability with MMS: 3.36e6; viability with MMS, replicate 1: 3.75e6

What did the screen give for ana1 #1?
mean viability with MMS: 3.55e6; viability with MMS, replicate 1: 3.89e6

For ana1 #2, what does the deposit list?
mean viability with MMS: 3.49e6; viability with MMS, replicate 1: 3.94e6

2 consecutive entries from above:
CG34347 #1 → mean viability with MMS: 3.51e6; viability with MMS, replicate 1: 4.04e6
CG34347 #2 → mean viability with MMS: 3.32e6; viability with MMS, replicate 1: 3.74e6
